Changes are numbered by the printed parent chain. The entries are a selection whose mix differs from that of the whole data set. Calls are pooled over several reports, among them a noisy single-well screen. The list shows a part of the results.
Key:
Settings in all cases: stereoisomer not certain
[1] = system: T1, O51G1
T1 sequence (whole entry): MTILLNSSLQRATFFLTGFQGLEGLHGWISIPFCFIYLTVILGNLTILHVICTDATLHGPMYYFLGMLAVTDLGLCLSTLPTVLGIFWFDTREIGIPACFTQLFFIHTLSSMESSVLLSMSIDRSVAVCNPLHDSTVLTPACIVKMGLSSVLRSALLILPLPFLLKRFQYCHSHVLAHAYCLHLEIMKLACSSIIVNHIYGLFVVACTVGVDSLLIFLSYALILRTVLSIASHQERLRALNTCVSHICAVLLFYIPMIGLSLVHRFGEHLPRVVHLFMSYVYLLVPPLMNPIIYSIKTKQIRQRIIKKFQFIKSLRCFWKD
Method in brief: (§1)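 Each entry records the cell line, G-protein, co-transfected protein and tags used. Methods varied with the source, often transient luciferase assays in mammalian cell lines. A receptor–molecule pair is called responsive (active) if the original authors judged its signal statistically different from baseline and non-responsive (inactive) otherwise.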

Chains of the proteins cited; added tags and fusions are not shown. A line that says so, or that is headed by a name, gives the form on record, which may keep a tag or linker.
O52E4, as listed by the source: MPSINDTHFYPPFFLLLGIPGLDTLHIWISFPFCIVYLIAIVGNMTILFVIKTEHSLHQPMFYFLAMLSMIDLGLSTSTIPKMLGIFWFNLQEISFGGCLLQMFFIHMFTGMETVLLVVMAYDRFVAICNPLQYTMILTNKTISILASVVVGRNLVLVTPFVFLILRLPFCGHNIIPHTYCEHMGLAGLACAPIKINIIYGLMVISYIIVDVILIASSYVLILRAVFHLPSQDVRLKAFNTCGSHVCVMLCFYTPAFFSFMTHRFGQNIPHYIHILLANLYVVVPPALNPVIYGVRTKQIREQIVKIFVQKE
O52E8, as listed by the source: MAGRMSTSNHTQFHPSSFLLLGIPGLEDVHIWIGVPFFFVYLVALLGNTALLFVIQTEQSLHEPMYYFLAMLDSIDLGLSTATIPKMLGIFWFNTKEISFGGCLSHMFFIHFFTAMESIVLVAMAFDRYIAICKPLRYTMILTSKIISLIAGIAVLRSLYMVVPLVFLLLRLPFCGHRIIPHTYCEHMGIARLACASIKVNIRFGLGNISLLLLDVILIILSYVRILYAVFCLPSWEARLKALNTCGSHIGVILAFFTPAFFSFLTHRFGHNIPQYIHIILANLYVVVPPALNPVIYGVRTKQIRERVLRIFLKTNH
O52E2, as listed by the source: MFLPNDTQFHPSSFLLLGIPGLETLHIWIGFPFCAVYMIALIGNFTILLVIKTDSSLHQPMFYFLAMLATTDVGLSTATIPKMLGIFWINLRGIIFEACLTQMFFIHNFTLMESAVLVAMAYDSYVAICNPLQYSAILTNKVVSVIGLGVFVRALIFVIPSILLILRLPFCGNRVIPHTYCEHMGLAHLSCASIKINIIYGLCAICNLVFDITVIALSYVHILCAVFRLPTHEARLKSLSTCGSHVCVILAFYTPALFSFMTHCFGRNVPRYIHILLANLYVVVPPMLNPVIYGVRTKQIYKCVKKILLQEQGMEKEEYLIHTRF
O51L1, as listed by the source: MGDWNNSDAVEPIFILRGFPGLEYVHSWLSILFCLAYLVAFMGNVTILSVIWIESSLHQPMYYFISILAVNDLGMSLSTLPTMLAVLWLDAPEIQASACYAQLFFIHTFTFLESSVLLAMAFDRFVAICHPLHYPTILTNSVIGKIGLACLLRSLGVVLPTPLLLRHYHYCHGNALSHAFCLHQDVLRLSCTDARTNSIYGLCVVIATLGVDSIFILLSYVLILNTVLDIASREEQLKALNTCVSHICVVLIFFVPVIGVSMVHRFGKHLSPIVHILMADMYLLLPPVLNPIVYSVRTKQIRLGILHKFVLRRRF
O51V1, as listed by the source: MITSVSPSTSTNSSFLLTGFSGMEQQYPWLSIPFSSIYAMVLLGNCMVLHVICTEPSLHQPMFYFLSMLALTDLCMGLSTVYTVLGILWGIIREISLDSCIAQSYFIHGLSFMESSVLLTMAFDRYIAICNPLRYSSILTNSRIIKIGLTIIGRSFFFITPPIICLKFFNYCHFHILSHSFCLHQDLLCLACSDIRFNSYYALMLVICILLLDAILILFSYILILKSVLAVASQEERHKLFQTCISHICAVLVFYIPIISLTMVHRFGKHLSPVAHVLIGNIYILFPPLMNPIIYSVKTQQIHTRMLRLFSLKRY
O52E5, as listed by the source: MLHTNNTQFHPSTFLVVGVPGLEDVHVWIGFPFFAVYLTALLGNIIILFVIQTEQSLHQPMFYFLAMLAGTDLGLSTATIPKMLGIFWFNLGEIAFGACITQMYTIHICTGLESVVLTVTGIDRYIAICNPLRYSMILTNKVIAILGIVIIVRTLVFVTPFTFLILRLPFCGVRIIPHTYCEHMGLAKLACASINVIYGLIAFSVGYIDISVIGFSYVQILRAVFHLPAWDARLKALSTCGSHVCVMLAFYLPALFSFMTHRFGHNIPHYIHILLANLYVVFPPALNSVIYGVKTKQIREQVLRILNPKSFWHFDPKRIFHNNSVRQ
O52E1, as listed by the source: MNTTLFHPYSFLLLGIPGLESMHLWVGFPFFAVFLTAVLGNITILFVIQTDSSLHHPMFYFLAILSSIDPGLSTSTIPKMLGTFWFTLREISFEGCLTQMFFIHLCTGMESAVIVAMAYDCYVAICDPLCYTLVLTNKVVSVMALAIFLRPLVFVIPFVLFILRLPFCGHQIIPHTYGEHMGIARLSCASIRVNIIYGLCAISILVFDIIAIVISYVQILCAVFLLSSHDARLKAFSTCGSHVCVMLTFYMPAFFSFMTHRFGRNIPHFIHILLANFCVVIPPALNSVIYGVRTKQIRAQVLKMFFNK

[2] = system: T2, O51G2
T2 sequence (whole entry): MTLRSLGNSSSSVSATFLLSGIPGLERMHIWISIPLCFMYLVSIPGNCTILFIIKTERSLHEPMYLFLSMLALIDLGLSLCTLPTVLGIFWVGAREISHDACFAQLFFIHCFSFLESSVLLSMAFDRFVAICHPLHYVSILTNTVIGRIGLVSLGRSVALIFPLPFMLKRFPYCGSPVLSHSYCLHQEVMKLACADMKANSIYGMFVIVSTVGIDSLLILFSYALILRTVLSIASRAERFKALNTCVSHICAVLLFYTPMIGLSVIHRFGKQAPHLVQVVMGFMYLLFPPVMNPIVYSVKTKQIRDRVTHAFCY
Method in brief: as §1

[3] = system: T3, O51J1
T3 sequence (whole entry): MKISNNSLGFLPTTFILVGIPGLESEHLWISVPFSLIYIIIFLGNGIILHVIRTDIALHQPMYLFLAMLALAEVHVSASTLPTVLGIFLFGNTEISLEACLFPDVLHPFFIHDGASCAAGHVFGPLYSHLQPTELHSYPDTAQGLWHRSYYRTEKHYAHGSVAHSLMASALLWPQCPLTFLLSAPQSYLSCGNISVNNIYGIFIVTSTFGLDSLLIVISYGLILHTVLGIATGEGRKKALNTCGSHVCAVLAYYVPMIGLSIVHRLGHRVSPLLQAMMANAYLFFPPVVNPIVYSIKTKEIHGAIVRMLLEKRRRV
Method in brief: as §1

[4] = system: T4, O51L1
T4 sequence (whole entry): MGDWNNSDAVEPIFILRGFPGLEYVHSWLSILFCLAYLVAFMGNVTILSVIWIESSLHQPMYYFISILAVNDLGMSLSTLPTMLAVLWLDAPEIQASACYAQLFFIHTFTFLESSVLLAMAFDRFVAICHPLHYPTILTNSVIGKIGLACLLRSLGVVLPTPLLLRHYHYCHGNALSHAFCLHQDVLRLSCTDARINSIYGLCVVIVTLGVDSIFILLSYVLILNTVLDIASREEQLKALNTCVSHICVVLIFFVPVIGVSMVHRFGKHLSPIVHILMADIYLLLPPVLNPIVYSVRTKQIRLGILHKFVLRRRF
Method in brief: as §1

[5] = system: T5, O51L1; remark: listed apart in the source
T5 sequence (whole entry): T4 sequence (whole entry) with I196T, V207A, I281M
Method in brief: as §1

[6] = system: T6, O51M1
T6 sequence (whole entry): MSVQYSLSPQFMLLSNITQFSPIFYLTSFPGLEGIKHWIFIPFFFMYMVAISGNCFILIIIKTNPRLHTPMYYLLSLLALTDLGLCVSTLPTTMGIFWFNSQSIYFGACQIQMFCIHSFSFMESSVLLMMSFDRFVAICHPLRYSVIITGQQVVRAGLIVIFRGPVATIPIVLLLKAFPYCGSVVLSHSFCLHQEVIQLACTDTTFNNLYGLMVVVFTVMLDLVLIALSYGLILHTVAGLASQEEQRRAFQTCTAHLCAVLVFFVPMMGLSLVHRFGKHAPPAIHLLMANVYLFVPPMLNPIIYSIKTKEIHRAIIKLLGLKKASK
Method in brief: as §1

[7] = system: T7, O51Q1
T7 sequence (whole entry): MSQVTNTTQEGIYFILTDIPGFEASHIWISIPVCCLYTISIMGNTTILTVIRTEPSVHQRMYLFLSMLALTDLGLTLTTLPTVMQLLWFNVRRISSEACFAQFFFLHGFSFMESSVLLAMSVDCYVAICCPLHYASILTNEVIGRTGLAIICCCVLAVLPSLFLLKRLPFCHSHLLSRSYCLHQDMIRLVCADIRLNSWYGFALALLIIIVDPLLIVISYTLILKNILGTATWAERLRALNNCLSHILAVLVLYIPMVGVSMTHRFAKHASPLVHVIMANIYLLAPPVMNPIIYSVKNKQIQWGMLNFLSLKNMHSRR
Method in brief: as §1

[8] = system: T8, O51T1
T8 sequence (whole entry): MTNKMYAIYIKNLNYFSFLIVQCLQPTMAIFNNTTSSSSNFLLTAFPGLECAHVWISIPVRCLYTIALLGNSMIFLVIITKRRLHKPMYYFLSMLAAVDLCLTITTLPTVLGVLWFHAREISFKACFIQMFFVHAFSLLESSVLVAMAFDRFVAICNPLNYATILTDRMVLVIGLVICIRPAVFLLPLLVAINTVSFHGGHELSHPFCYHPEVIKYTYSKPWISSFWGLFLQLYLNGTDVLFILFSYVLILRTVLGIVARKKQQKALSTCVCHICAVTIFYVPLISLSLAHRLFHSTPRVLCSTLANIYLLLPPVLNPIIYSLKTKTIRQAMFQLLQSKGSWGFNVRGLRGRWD
Method in brief: as §1

[9] = system: T9, O51V1
T9 sequence (whole entry): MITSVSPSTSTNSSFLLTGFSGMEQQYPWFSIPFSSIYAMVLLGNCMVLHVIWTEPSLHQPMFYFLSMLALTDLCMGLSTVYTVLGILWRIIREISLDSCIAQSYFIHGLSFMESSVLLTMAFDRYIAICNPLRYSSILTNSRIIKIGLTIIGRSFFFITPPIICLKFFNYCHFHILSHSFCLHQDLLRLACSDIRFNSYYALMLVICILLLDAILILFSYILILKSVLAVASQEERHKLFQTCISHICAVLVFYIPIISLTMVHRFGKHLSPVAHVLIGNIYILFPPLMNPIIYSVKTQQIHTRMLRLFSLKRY
Method in brief: as §1

[10] = system: T10, O51V1; remark: listed apart in the source
T10 sequence (whole entry): T9 sequence (whole entry) with F30L, W53C, R90G, R189C
Method in brief: as §1

[11] = system: T11, O52A1
T11 sequence (whole entry): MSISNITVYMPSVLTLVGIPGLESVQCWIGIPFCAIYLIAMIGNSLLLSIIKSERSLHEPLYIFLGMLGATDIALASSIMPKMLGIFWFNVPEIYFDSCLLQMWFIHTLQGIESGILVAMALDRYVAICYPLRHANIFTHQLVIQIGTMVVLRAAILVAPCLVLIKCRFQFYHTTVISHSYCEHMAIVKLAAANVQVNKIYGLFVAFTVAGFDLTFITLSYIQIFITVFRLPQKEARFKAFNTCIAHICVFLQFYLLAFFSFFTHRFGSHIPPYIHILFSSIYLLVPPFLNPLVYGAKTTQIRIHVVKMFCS
Method in brief: as §1

[12] = system: T12, O52B2
T12 sequence (whole entry): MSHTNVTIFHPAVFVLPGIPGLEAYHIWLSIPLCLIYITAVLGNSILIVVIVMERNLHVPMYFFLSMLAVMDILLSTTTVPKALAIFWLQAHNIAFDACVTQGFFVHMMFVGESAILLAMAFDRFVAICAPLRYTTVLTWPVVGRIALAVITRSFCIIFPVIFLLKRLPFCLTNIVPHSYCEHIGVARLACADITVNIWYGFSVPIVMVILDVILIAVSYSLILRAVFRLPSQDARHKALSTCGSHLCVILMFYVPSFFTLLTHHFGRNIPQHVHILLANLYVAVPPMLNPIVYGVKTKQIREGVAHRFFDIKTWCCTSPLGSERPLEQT
Method in brief: as §1

[13] = system: T13, O52B6
T13 sequence (whole entry): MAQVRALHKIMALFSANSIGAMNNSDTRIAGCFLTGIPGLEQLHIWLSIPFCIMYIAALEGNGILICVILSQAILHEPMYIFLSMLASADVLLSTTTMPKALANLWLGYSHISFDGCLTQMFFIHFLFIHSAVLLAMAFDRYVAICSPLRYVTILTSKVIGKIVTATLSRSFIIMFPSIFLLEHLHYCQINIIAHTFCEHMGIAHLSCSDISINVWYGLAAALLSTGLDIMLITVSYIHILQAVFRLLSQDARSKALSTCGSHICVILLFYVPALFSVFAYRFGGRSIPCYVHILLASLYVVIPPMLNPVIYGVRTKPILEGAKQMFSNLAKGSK
Method in brief: as §1

[14] = system: O52E1
Method in brief: as §1

[15] = system: O52E2
Method in brief: as §1

[16] = system: O52E4
Method in brief: as §1

[17] = system: O52E5
Method in brief: as §1

[18] = system: O52E8
Method in brief: as §1

[19] = system: T14, O52I2
T14 sequence (whole entry): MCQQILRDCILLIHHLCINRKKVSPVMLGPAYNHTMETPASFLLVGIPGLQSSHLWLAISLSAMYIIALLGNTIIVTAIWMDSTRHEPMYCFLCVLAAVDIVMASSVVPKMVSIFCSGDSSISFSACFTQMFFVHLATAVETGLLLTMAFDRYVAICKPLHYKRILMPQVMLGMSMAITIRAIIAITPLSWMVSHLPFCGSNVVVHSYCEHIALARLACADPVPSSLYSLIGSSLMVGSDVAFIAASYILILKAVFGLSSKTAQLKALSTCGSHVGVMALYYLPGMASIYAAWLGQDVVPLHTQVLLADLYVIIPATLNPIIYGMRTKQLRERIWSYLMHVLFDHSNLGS
Method in brief: as §1

Measured: odorant receptor agonist call

CCCCCCCCCC=O
active: [6] | [17]
inactive: all other assays above

O=C1CCCCCCCCCCCCCCO1
inactive: all assays above

CCCCO
inactive: all assays above

COc1cc(C=O)ccc1O
inactive: all assays above

2 compounds drawn at random from the list so far, as already listed:
COc1cc(C=O)ccc1O
inactive: all assays above

O=C1CCCCCCCCCCCCCCO1
inactive: all assays above

(continued)

CCCCCOC(C)=O
inactive: all assays above

c1cnccn1
inactive: all assays above

CC1COCc2cc3c(cc21)C(C)(C)C(C)C3(C)C (configuration not stated)
inactive: [2] | [6] | [7] | [8] | [11] | [14] | [16] | [17] | [18]
active: all other assays above

C=CCc1ccc(OC)c(OC)c1
active: [6] | [16] | [17]
inactive: all other assays above

— the M2OR odorant receptor database
